Test results as given in patent US6914045B2, “Glycopeptide antibiotics” (Wyeth Holdings Corporation, priority 2001, dated 2005).
At least one compound was matched to its structure with a doubt left.

Tested on: Escherichia coli
Experiment: in vitro antibacterial evaluation, MIC by broth dilution
Type: cell-based
Set-up: unit not given beside the values
Conditions: 18 hours at 35° C.
Protocol: The minimum inhibitory concentration (MIC), the lowest concentration of the antibiotic which inhibits growth of the test organism, is determined by the broth dilution method using Muller-Hinton II […] (Baltimore Biological Laboratories) following the recommendations of the National Committee for Clinical Laboratory Standards [Methods for dilution antimicrobial susceptibility tests for bacteria that grow aerobically, approved standard M7-A2, National Committee for Clinical Laboratory Standards, Villanova, Pa.].
An inoculum level of 5×10^5 CFU/mL, and a range of antibiotic concentrations (64-0.06 μg/mL) is used. […] The test organisms include a spectrum of Gram-positive bacteria comprised of Staphylococcus sp., Streptococcus sp. and Enterococcus sp. These organisms include recent clinical isolates that are resistant to methicillin, penicillin and/or vancomycin.

## CC(c1ccccc1)C1NC(=O)CNC(=O)C(CO)NC(=O)C(C(O)C2CNC(=NCc3ccccc3)N2C2OC(CO)C(O)C(O)C2O)NC(=O)C(C(O)C2CNC(=N)N2)NC(=O)C(Cc2ccc(OC3OC(CO)C(OC4OC5COC6(OC5C(O)C4O)C4CC5CC(C4)CC6C5)C(O)C3O)cc2)NC1=O (stereo not drawn) [Example 76, Cyclo[glycyl-β-methylphenylalanyl-O-[4-O-[4,6-O-(2-adamantylidene)hexopyranosyl]hexopyranosyl]tyrosyl-3-(2-iminoimidazolidin-4-yl)seryl-3-[2-(benzylimino)-3-hexopyranosylimidazolidin-4-yl]serylseryl]]
  MIC Escherichia coli (ATCC 25922): 64->64
